Experiment: Fmoc solid-phase peptide synthesis; Rink MBHA amide resin; DEPBT or HBTU (Boc); DIC/HOBT (Fmoc)
Conditions: whole synthesis, scale 0.1 mmol, side-chain lactam ring, sequence written open

Q: With “HO-PLA-Thr-Ser-Asp-Tyr-Ser-Lys-Tyr-Leu-Asp-Glu-Arg-Arg-Ala-Lys-Asp-Phe-Val-Gln-Trp-Leu-Met-Asp-Thr-NH2” as the substance, how does the “final HPLC purity” value (analytical HPLC, 220 nm) read?
A: The value was 95% purity.

Q: What about the isolated yield (overall) of the same substance?
A: The isolated yield was 10˜15% yield totally.

Q: And the crude mass?
A: Its crude mass is 150˜250 mg.

Q: What about the isolated mass of the same substance?
A: Its isolated mass is 20˜30 mg.

Source: US20140107021A1 (priority 2010, published 2014)
